Results from the supplement of paper PMC4683952.
Counter-ions that a name gives are not always drawn. Some of the results follow. Cut-off read from the data, not from the text of the source: active = 2.5 or more and inactive = the rest. This data set is noisy: repeats of one test often differ as much as different tests do.

Test system: Lgr5 (MarsCy1-Lgr5-EGFP, U2OS)
Test: cell-surface Lgr5 expression (SCi1 fluorescence, background-subtracted) relative to WT control (fold of WT control); higher = more Lgr5 at the plasma membrane
Conditions: U2OS MarsCy1-Lgr5-EGFP stable; treatment time: overnight; library: Prestwick; 20 µM

SMILES	cell-surface Lgr5 expression
NS(=O)(=O)c1cc2c(cc1Cl)NCNS2(=O)=O [Hydrochlorothiazide]	inactive: 0.896
CN(C)CCC=C1c2ccccc2C=Cc2ccccc21 [Cyclobenzaprine hydrochloride]	active: 2.88
CNNCc1ccc(C(=O)NC(C)C)cc1 [Procarbazine hydrochloride]	inactive: 1.45
C[n+]1cccc(C(=O)[O-])c1 [Trigonelline]	active: 2.7
Nc1ccc(S(=O)(=O)Nc2ccc(Cl)nn2)cc1 [Sulfachloropyridazine]	inactive: 1.63
COc1cc2nc(N3CCN(C(=O)C4CCCO4)CC3)nc(N)c2cc1OC (stereo unspecified) [Terazosin hydrochloride]	active: 3.37
CC(=O)OCC(=O)[C@@]1(O)CC[C@H]2[C@@H]3CCC4=CC(=O)C=C[C@]4(C)[C@@]3(F)[C@@H](O)C[C@@]21C [Isoflupredone acetate]	active: 2.67
CN(C)CCCOc1nn(Cc2ccccc2)c2ccccc12 [Benzydamine hydrochloride]	inactive: 2.36
CCN1CCN(C(=O)N[C@@H](C(=O)N[C@@H]2C(=O)N3[C@@H]2SC(C)(C)[C@@H]3C(=O)O)c2ccccc2)C(=O)C1=O [Piperacillin sodium salt]	inactive: 1.97
CO[C@@H]1[C@@H](OC(N)=O)[C@@H](O)[C@H](Oc2ccc3c(O)c(NC(=O)c4ccc(O)c(CC=C(C)C)c4)c(=O)oc3c2C)OC1(C)C [Novobiocin sodium salt]	inactive: 1.74
CN1CCCCC1CCN1c2ccccc2Sc2ccc([S+](C)[O-])cc21 (stereo unspecified) [Mesoridazine besylate]	inactive: 1.39
NC(=O)N/N=C/c1ccc([N+](=O)[O-])o1 [Nitrofural]	active: 2.55
CCCC(=O)Nc1ncnc2c1ncn2[C@@H]1O[C@@H]2COP(=O)(O)O[C@H]2[C@H]1OC(=O)CCC [Bucladesine sodium salt]	active: 2.6
CC1(C)OC(=O)NC1=O [Dimethadione]	inactive: 1.69
N=C(N)NCC1COC2(CCCCC2)O1 (stereo unspecified) [Guanadrel sulfate]	inactive: 2.4
Cn1nnnc1SCC1=C(C(=O)O)N2C(=O)[C@@H](NC(=O)[C@H](O)c3ccccc3)[C@H]2SC1 [Cefamandole sodium salt]	inactive: 1.47
Nc1ccc(C(=O)NCC(=O)O)cc1 [Aminohippuric acid]	inactive: 1.52
COc1ccc(NS(=O)(=O)c2ccc(N)cc2)nn1 [Sulfamethoxypyridazine]	active: 3.82
Nc1ccc(S(=O)(=O)c2ccc(N)cc2)cc1 [Dapsone]	inactive: 1.97
OC[C@H]1O[C@@H](Oc2ccc(O)cc2)[C@H](O)[C@@H](O)[C@@H]1O [Arbutin]	inactive: 1.28
OCCN1CCN(CCCN2c3ccccc3Sc3ccc(Cl)cc32)CC1 [Perphenazine]	inactive: 1.08
C#CCN(C)Cc1ccccc1 [Pargyline hydrochloride]	inactive: 1.12
COc1ccc2cc(CCC(C)=O)ccc2c1 [Nabumetone]	inactive: 1.85

SMILES	cell-surface Lgr5 expression
Nc1c(O)cccc1C(=O)CC(N)C(=O)O (racemic) [Kynurenine, 3-hydroxy (R,S)]	inactive: 1.26
CCn1cc(C(=O)O)c(=O)c2ccc(C)nc21 [Nalidixic acid sodium salt hydrate]	inactive: 1.45
CCN(CC)CCNC(=O)c1cc(S(C)(=O)=O)ccc1OC [Tiapride hydrochloride]	inactive: 1.1
O=C(CCCN1CC=C(n2c(=O)[nH]c3ccccc32)CC1)c1ccc(F)cc1 [Droperidol]	inactive: 2.27
COc1cc2nc(N3CCN(C(=O)c4ccco4)CC3)nc(N)c2cc1OC [Prazosin hydrochloride]	inactive: 1.86
CCn1cc(C(=O)O)c(=O)c2cnc(N3CCNCC3)nc21 [Pipemidic acid]	active: 2.51
COc1nc(C)nc(Cl)c1NC1=NCCN1 [Moxonidine]	inactive: 0.785
Cc1ccc(S(=O)(=O)NC(=O)NN2CC3CCCC3C2)cc1 (stereo unspecified) [Gliclazide]	active: 3.24
CC(=O)N[C@@H](CC(=O)N[C@@H](CCC(=O)O)C(=O)O)C(=O)O [Spaglumic acid]	inactive: 1.25
COc1ccc(-c2cc(=O)c3c(O)cc(O)cc3o2)cc1 [Acacetin]	active: 3.13
O=c1c(O)c(-c2cc(O)c(O)c(O)c2)oc2cc(O)cc(O)c12 [Myricetin]	inactive: 1.67
COc1ccc(C(=O)NCc2cccnc2)cc1C(=O)NCc1cccnc1 [Picotamide monohydrate]	inactive: 0.963
NC[C@H]1O[C@H](O[C@H]2[C@H](O[C@@H]3O[C@H](CO)[C@@H](O)[C@H]3O)[C@@H](O)[C@H](N)C[C@@H]2N)[C@H](N)[C@@H](O)[C@@H]1O [Ribostamycin sulfate salt]	inactive: 1.3
COc1ccc2[nH]cc(CCNC(C)=O)c2c1 [Melatonin]	inactive: 0.896
CC(C)N1CCN(c2ccc(OCC3COC(Cn4cncn4)(c4ccc(Cl)cc4Cl)O3)cc2)CC1 (stereo unspecified) [Terconazole]	active: 4.27
O=C(NCCNCC(O)COc1ccc(O)cc1)N1CCOCC1 (stereo unspecified) [Xamoterol hemifumarate]	inactive: 1.7
CCN(Cc1ccncc1)C(=O)C(CO)c1ccccc1 (stereo unspecified) [Tropicamide]	inactive: 1.04
CCN(CC)CC#CCOC(=O)C(O)(c1ccccc1)C1CCCCC1 (stereo unspecified) [Oxybutynin chloride]	inactive: 1.71
Cc1ncc([N+](=O)[O-])n1CCO [Metronidazole]	inactive: 1.22
OC(CCN1CCCCC1)(c1ccccc1)C1CC2C=CC1C2 (stereo unspecified) [Biperiden hydrochloride]	active: 2.72
CC(C)NCC(O)COc1ccc(COCCOC(C)C)cc1 (stereo unspecified) [Bisoprolol fumarate]	inactive: 0.606
Nc1nc(=S)c2ncn([C@@H]3O[C@H](CO)[C@@H](O)[C@H]3O)c2[nH]1 [Thioguanosine]	inactive: 1.73
COc1c2ccoc2nc2c(OC)c(OCC(O)C(C)(C)O)ccc12 (stereo unspecified) [Evoxine]	inactive: 1.97

An excerpt of these results, in CSV form:
SMILES,cell-surface Lgr5 expression
NC[C@H]1O[C@H](O[C@H]2[C@H](O[C@@H]3O[C@H](CO)[C@@H](O)[C@H]3O)[C@@H](O)[C@H](N)C[C@@H]2N)[C@H](N)[C@@H](O)[C@@H]1O [Ribostamycin sulfate salt],inactive: 1.3
COc1ccc2[nH]cc(CCNC(C)=O)c2c1 [Melatonin],inactive: 0.896
O=C(NCCNCC(O)COc1ccc(O)cc1)N1CCOCC1 (stereo unspecified) [Xamoterol hemifumarate],inactive: 1.7
OC(CCN1CCCCC1)(c1ccccc1)C1CC2C=CC1C2 (stereo unspecified) [Biperiden hydrochloride],active: 2.72
